Source: US10067136B1, “Photoactivatable probes and uses thereof” (University of South Florida, priority 2016, dated 2018)
Some results were stated once for a whole list of compounds, not compound by compound.

The compounds below were run against concanavalin A (Con A) (Canavalia ensiformis, UniProt P02866) (assay: Photolabeling of Con A in the presence of mannose (competitive binding)). Conditions: competing mannose at 100 fold or 1000 fold, western blot.
Method: For the competitive binding studies with mannose, to a solution of Con A (0.2 mg) in acetate buffer (10 mM, pH=5 with calcium chloride (1 mM), manganese (II) chloride (1 mM) and sodium chloride (200 mM)) (1 ml) a aqueous solution of mannose (30 μL of 100 mM solution for 100 fold [or] 30 μL of 1 M solution for 1000 fold) was added and mixed. To this the photoaffinity label (20, 21 or 22) solution (10 mM) in methanol (3 μL) was added at 0° C. This solution was bubbled with a gentle stream of nitrogen gas, using a clean needle, for 5 minutes and incubated in the dark at 0° C. for 30 minutes. The sample was then transferred to a disposable cuvette and photoactivated for 10 minutes using a 150 W XBO xenon short-arc UV lamp fitted with a filter that cuts off light with wavelengths less than 320 nm. The resultant sample can be stored at −80° C. and used for SDS gel and Western blot analysis.
Upon running the SDS gel, the PVDF membrane and gel was shaken in transfer buffer for 15 minutes. The holder cassette was placed opened in a shallow vessel such that the black panel was lying flat on the bottom of the vessel. Fiber pad presoaked with transfer buffer was then placed on the black panel of the holder cassette and a presoaked filter paper was placed over it. The equilibrated gel was carefully placed over the filter paper to avoid any air bubble getting trapped between the layers. Then the PVDF membrane was laid over the gel with care towards avoiding any air pocket between the layers. A presoaked filter paper was placed over the membrane followed by a filter pad. The resultant sandwich was firmly secured and the cassette was closed. The cassette holder was placed in the tank such that the black panel of the holder was on the black panel electrode. Insert the ice pack on the other side of the tank and place the tank on a magnetic stirrer. The tank was filled to the top row of circles in the cassette with transfer buffer. […] The resultant chemiluminescence of the bands was recorded on a photographic film and developed using a film processor.

SMILES	photolabeling / crosslinking of Con A in the presence of mannose (in words)
O=C(CCCCC1SCC2NC(=O)NC21)NCCCCCCN(Cc1ccc(C2(C(F)(F)F)N=N2)cc1)C(=O)CO[C@H]1O[C@H](CO)[C@@H](O)[C@H](O)[C@@H]1O (stereo partly drawn) [compound 20, 5-(2-oxohexahydro-1H-thieno[3,4-d]imidazol-4-yl)-N-(6-(N-(4-(3-(trifluoromethyl)-3H-diazirin-3-yl)benzyl)-2-(((2S,3S,4S,5S,6R)-3,4,5-trihydroxy-6-(hydroxymethyl)tetrahydro-2H-pyran-2-yl)oxy)acetamido)hexyl)pentanamide]	significantly suppressed
O=C(CCCCC1SCC2NC(=O)NC21)NCCCCCCN(Cc1ccc(C2(C(F)(F)F)N=N2)cn1)C(=O)CO[C@H]1O[C@H](CO)[C@@H](O)[C@H](O)[C@@H]1O (stereo partly drawn) [compound 21, 5-(2-oxohexahydro-1H-thieno[3,4-d]imidazol-4-yl)-N-(6-(N-((5-(3-(trifluoromethyl)-3H-diazirin-3-yl)pyridin-2-yl)methyl)-2-(((2S,3S,4S,5S,6R)-3,4,5-trihydroxy-6-(hydroxymethyl)tetrahydro-2H-pyran-2-yl)oxy)acetamido)hexyl)pentanamide]	significantly suppressed
O=C(CCCCC1SCC2NC(=O)NC21)NCCCCCCN(Cc1ncc(C2(C(F)(F)F)N=N2)cn1)C(=O)CO[C@H]1O[C@H](CO)[C@@H](O)[C@H](O)[C@@H]1O (stereo partly drawn) [compound 22, 5-(2-oxohexahydro-1H-thieno[3,4-d]imidazol-4-yl)-N-(6-(N-((5-(3-(trifluoromethyl)-3H-diazirin-3-yl)pyrimidin-2-yl)methyl)-2-(((2S,3S,4S,5S,6R)-3,4,5-trihydroxy-6-(hydroxymethyl)tetrahydro-2H-pyran-2-yl)oxy)acetamido)hexyl)pentanamide]	significantly suppressed
